“Also recorded” adds a separate entry of the source. Where two headings read alike, the source gives them in different places. For at least one compound, name, drawing or mass did not settle the structure.
Tested on: NL5901 strain expressing α-synuclein in muscle cells
Type: in vivo, Caenorhabditis elegans
Details: 1 μg/ml

C[C@]12CC[C@H](O)CC1=CC[C@@H]1[C@@H]2CC[C@]2(C)C(c3cccnc3)=CC[C@@H]12 [abiraterone]
mobility with age (NL5901 strain with sul-2 deletion allele): suppressed the beneficial effect of sul-2 mutation; also recorded: suppresses the beneficial effect of sul-2 deletion allele
mobility with age (NL5901 strain): did not affect wild type animals; also recorded: does not affect mobility phenotype of NL5901 strain
